PubChem BioAssay AID1259308 | NCATS – 2017

Test: 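Genes whose loss raises luciferase production in HEK293 cells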 (primary screen)
Cell system: human HEK293 embryonic kidney cells stably expressing firefly luciferase (HEK-CMV-Luc2-Hygro)
Reagents: single siRNA against human genes, 0.8 pmol siRNA per well
Timing: 72 h
Measured: 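Luciferase light (ONE-Glo) measured on one replicate plate set and viability (CellTiter-Glo) on the other, scaled to a negative control siRNA, with robust z-scores and luciferase per cell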
Direction: total luciferase, z-score and total luciferase, % of control: higher = more reporter protein produced; luciferase per cell, z-score: higher = more reporter output per viable cell; viable cells, % of control: higher = more viable cells
Active means: 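Active when the median/MAD z-score for overall luciferase is greater than 3; a gene was taken forward for validation with new siRNAs if at least two of its three siRNAs passed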
Meaning of the calls: active = raised luciferase; inactive = no rise
Shown is one part, drawn at random, of about 59,000 reagents. About 1,510 of all reagents (2.6%) were called active. 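Calls use total luciferase alone and ignore viability, so some active siRNAs may act by altering cell number.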 Entries without a mark were called inactive. Reagents against one gene are numbered here.

| Gene | reagent no. | total luciferase, z-score | total luciferase, % of control | luciferase per cell, z-score | viable cells, % of control |
| --- | --- | --- | --- | --- | --- |
| PGM2 (GeneID 55276) | 1 | -1.06 | 60.8 | -1.02 | 88.9 |
| PGM2 (GeneID 55276) | 2 | -0.599 | 70 | -0.807 | 96.7 |
| PGM2 (GeneID 55276) | 3 | -0.998 | 62 | -0.679 | 82.9 |
| LOC644893 (GeneID 644893) | 1 | -1.2 | 58 | -0.752 | 79 |
| LOC644893 (GeneID 644893) | 2 | 1.8 | 118 | 1.44 | 89.9 |
| LOC644893 (GeneID 644893) | 3 | 0.343 | 88.7 | -0.461 | 112 |
| OR14A16 (GeneID 284532) | 1 | 1.29 | 108 | 0.545 | 104 |
| OR14A16 (GeneID 284532) | 2 | -0.116 | 79.6 | 0.342 | 81.3 |
| OR14A16 (GeneID 284532) | 3 | 2.56 | 133 | 2.19 | 83.5 |
| CD6 (GeneID 923) | 1 | 0.527 | 92.4 | 0.802 | 83.6 |
| CD6 (GeneID 923) | 2 | -0.606 | 69.8 | -0.772 | 95.6 |
| CD6 (GeneID 923) | 3 | -0.381 | 74.3 | -0.349 | 91 |
| DCTN6 (GeneID 10671) | 1 | -0.0971 | 80 | -0.092 | 91.5 |
| DCTN6 (GeneID 10671) | 2 | -0.998 | 62 | -0.665 | 82.6 |
| DCTN6 (GeneID 10671) | 3 | -1.34 | 55.2 | 0.0406 | 61.1 |
| MMEL1 (GeneID 79258) | 1 | 0.0192 | 82.3 | 0.0283 | 91.2 |
| MMEL1 (GeneID 79258) | 2 | -0.381 | 74.3 | -0.589 | 97 |
| MMEL1 (GeneID 79258) | 3 | -0.167 | 78.6 | -0.161 | 91.6 |
| LRRC32 (GeneID 2615) | 1 | -1.54 | 51.3 | -0.77 | 70.2 |
| LRRC32 (GeneID 2615) | 2 | -0.95 | 63 | -0.937 | 90.1 |
| LRRC32 (GeneID 2615) | 3 | 2.14 | 124 | 1.99 | 82.3 |
| TFCP2 (GeneID 7024) | 1 | -0.819 | 65.6 | -0.608 | 86 |
| TFCP2 (GeneID 7024) | 2 | 2.92 | 140 | 1.51 | 105 |
| TFCP2 (GeneID 7024) | 3 | 0.522 | 92.3 | 0.386 | 93.1 |
| FAHD2B (GeneID 151313) | 1 | -0.66 | 68.8 | -0.405 | 85.5 |
| FAHD2B (GeneID 151313) | 2 | 2.02 | 122 | 1.56 | 90.6 |
| FAHD2B (GeneID 151313) | 3 | -1.02 | 61.5 | -0.588 | 80.3 |
| KCNN1 (GeneID 3780) | 1 | -0.745 | 67.1 | -0.782 | 92.1 |
| KCNN1 (GeneID 3780) | 2 | 0.317 | 88.2 | 0.117 | 95.6 |
| KCNN1 (GeneID 3780) | 3 | -0.182 | 78.3 | -0.455 | 98.6 |
| DEFB127 (GeneID 140850) | 1 | -1.33 | 55.4 | -0.498 | 70.6 |
| DEFB127 (GeneID 140850) | 2 | 1.6 | 114 | 1.63 | 82.8 |
| DEFB127 (GeneID 140850) | 3 | 0.201 | 85.9 | 0.149 | 92.3 |
| PARP3 (GeneID 10039) | 1 | -1.47 | 52.7 | -0.982 | 76.3 |
| PARP3 (GeneID 10039) | 2 | -1.43 | 53.5 | -0.942 | 76.7 |
| PARP3 (GeneID 10039) | 3 | -1.08 | 60.3 | -0.927 | 86.1 |
| MCCC1 (GeneID 56922) | 1 | 1.22 | 106 | 0.98 | 91.6 |
| MCCC1 (GeneID 56922) | 2 | -1.26 | 56.8 | -1.17 | 86.4 |
| MCCC1 (GeneID 56922) | 3 | 1.28 | 107 | 1.91 | 72.6 |

No new results follow: 3 of the entries above.
| Gene | reagent no. | total luciferase, z-score | total luciferase, % of control | luciferase per cell, z-score | viable cells, % of control |
| --- | --- | --- | --- | --- | --- |
| OR14A16 (GeneID 284532) | 1 | 1.29 | 108 | 0.545 | 104 |
| OR14A16 (GeneID 284532) | 2 | -0.116 | 79.6 | 0.342 | 81.3 |
| OR14A16 (GeneID 284532) | 3 | 2.56 | 133 | 2.19 | 83.5 |
